Results reported in PubChem BioAssay AID1347076 (National Center for Advancing Translational Sciences (NCATS), 2019).
In all, about 400,000 compounds went through this assay and about 13,000 (3.2%) were called active. This list was built around the results that the source calls inconclusive (neither active nor inactive); the mix of calls is not that of the screen. Calls follow the shape of the dose curve; as a rule, active = well fitted cell-killing curve with a large enough effect; inconclusive = small, poorly fitted or top-dose-only effect, or effect the other way; inactive = flat fitted curve, though single readings scatter. Potencies beside an inconclusive call are fits to weak or partial responses and may not hold up.

Test: qHTS assay for MDR1-selective chemotherapeutics: Primary screen using the drug-selected MDR subline cells KB-V1; also: nearly all actives have a fitted effect of over 60% in size
Details: KB-V1 MDR cells viability, CellTiter-Glo, 72 h; activity change, negative = cytotoxicity: at 46.1 µM (top of the series)
Method in brief: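 KB-V1 cells (P-gp-expressing MDR subline of KB-3-1) in phenol-red-free DMEM with 10% FBS were exposed to library compounds over a concentration series for 72 h at 37 degrees C. Viability read by CellTiter-Glo luminescence; concentration-effect curves fitted after normalization.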
% is scaled to controls: 0 for no effect and ±100 for the full control effect; potency is read from the fitted curve at half-maximal effect.

Row | Compound | Potency | activity change, negative = cytotoxicity
1 | Cc1nn(-c2ccccc2)nc1C(=O)OCC(=O)N1CCCCC1C (centres undefined) | active: 23.1 µM | 
2 | Cc1cccc(Cc2cnc(NC(=O)C3=NCCN3)s2)c1 | inconclusive: 23.1 µM [cytotoxic, single point] | 
3 | O=C(CCCCn1c(=O)c2ccccc2n(CC(=O)Nc2ccccc2)c1=O)NCc1ccccc1Cl | inconclusive: 18.4 µM [rising, single point] | 
4 | COc1cccc(/C=N/NC(=O)CCn2c3ccccc3c3ccccc32)c1 |  | inactive: -10.4%
5 | COc1ccc(CN(C)C(=O)[C@H]2O[C@@H](n3ccc(=O)[nH]c3=O)[C@H](O)[C@@H]2O)cc1OC | inconclusive: 29.1 µM [cytotoxic, single point] | 
6 | C=CCNC(=S)N1CCc2c([nH]c3ccccc23)C1C (centres undefined) | inconclusive: 29.1 µM [cytotoxic, single point] | 
7 | O=C(CN1CCN(C(=O)C2CCN(C(=O)/C=C/c3ccccc3)CC2)CC1)Nc1ccc(F)cc1 | inconclusive: 18.4 µM [cytotoxic, single point] | 
8 | NC(c1ccccc1)c1csc(Nc2cc(Oc3ccccc3)ncn2)n1 (centres undefined) | inconclusive: 29.1 µM [cytotoxic, single point] | 
9 | CCOC(=O)c1ccccc1NC(=O)Cn1cnc2c(cnn2-c2ccccc2)c1=O |  | inactive: -22.5%
10 | COc1ccccc1CN(C)C(=O)c1sccc1-c1ccccc1 | inconclusive: 29.1 µM [cytotoxic, single point] | 
11 | O=C(/C=C/c1ccccc1)CC(O)(c1ccccc1)C(F)(F)C(F)F (centres undefined) | inconclusive: 29.1 µM [cytotoxic, single point] | 
12 | CCOC(=O)c1sc(NC(=O)C(C)Sc2nc(-c3ccccc3)cc(C(F)(F)F)n2)c(C(=O)OC)c1C (centres undefined) |  | inactive: 0%
13 | CCOc1ccc(C(=O)NNC(=O)CNC(=O)c2ccc(C)s2)cc1OC | inconclusive: 18.4 µM [rising, partial curve] | 
14 | CC(=O)c1ccccc1NC(=O)COC(=O)/C=C/c1cccs1 |  | inactive: 2.57%
15 | Cc1ccc(S(=O)(=O)N2CCN(C(=O)CN3C(=O)NC4(CCCC4)C3=O)CC2)c(C)c1 | inconclusive: 6.51 µM [rising, partial curve, poor fit] | 
16 | Cc1csc(Sc2nc3c(c(=O)[nH]c(=O)n3C)n2Cc2ccccc2Cl)n1 | inconclusive: 8.2 µM [cytotoxic, partial curve, poor fit] | 
17 | CC(c1ccc(F)cc1)n1cc(C(=O)NCCN(C)C)nn1 (centres undefined) |  | inactive: -2.15%
18 | NC(=O)c1ccccc1NC(=O)CCN1C(=O)c2ccccc2C1=O |  | inactive: 12%
19 | O=C(NCCCN1CCOCC1)c1onc(CSc2ccccn2)c1C(=O)NCCCN1CCOCC1 | inconclusive: 3.26 µM [rising, partial curve, poor fit] | 
20 | Cc1ccc(NC(=O)CCC(=O)NNC(=O)NC23CC4CC(CC(C4)C2)C3)cc1C | inconclusive: 29.1 µM [rising, single point] | 
21 | CCOC(=O)c1c(-n2cnnn2)sc2c1CCCC2 |  | inactive: 0%
22 | CC1CC(C)(C)NC(=S)N1CCC(=O)NCc1ccc(Cl)cc1 (centres undefined) | inconclusive: 23.1 µM [cytotoxic, partial curve, poor fit] | 

Row | Compound | Potency | activity change, negative = cytotoxicity
23 | CN(C)/C=N/c1nc2ccc3c(c2s1)CCCC3 | inconclusive: 29.1 µM [cytotoxic, single point] | 
24 | CC(=O)N1CCOc2cc(S(=O)(=O)N3CCN(c4ccccc4)CC3)c(Cl)cc21 |  | inactive: 3.36%
25 | COc1ccc(/C=C/C(=O)OCC(=O)N2CCCC2)c(OC)c1 | active: 11.6 µM | 
26 | CCOC(=O)c1c(-c2ccc(OC)c(OC)c2)csc1NC(=O)C1CCCO1 (centres undefined) | inconclusive: 8.2 µM [cytotoxic, partial curve] | 
27 | O=C(c1cnc2n(c1=O)CCS2)N1CCN(c2ccc(Cl)c(Cl)c2)CC1 | inconclusive: 29.1 µM [cytotoxic, single point] | 
28 | COc1ccc(Nc2nc3ccc(Cl)cc3n3nnnc23)cc1OC |  | inactive: -1.88%
29 | CC(=O)Nc1sc(C)c(C)c1C(=O)Nc1ccc(C)cc1 | inconclusive: 29.1 µM [cytotoxic, single point] | 
30 | O=C(O)c1ccc(N2CCc3ccccc32)c([N+](=O)[O-])c1 | inconclusive: 25.9 µM [rising, single point] | 
31 | Cc1cc(C)n2c(Nc3c(C)cccc3C)c(-c3cccnc3)nc2n1 | inconclusive: 10.3 µM [cytotoxic, partial curve, poor fit] | 
32 | CCOC(=O)c1ccc(NC(=O)C2(c3ccccc3)CCCC2)cc1 | active: 14.6 µM | 
33 | Cc1ccccc1NC(=O)CN1C(=O)NC(C)(c2ccc3c(c2)OCO3)C1=O (centres undefined) |  | inactive: 9.43%
34 | CCOC(=O)N1CCN(C(=O)CCN2C(=O)/C(=C\c3cccc(OC)c3)SC2=S)CC1 | inconclusive: 29.1 µM [cytotoxic, single point] | 
35 | COc1ccc(C(=O)NC(=S)Nc2cccc(S(=O)(=O)N3CCOCC3)c2)cc1 | active: 5.17 µM | 
36 | COc1ccc(CCNc2ncnc3cc(OC)c(OC)cc23)cc1OC | active: 20.6 µM | 
37 | Cc1cc(C)n(CCCNC(=O)c2ccc(C)o2)n1 |  | inactive: 8.13%
38 | COCc1ccc(CN2CCC(C(=O)Nc3cccc(-c4cccc(Cl)c4)c3)CC2)o1 | inconclusive: 32.6 µM [cytotoxic, single point] | 
39 | O=C1c2cccnc2C(Nc2ccc(Cl)cc2)N1Cc1cccs1 (centres undefined) | inconclusive: 13 µM [cytotoxic, partial curve] | 
40 | O=C(NCCC(=O)N1CCN(c2ncccn2)CC1)c1ccccc1 | inconclusive: 18.4 µM [cytotoxic, partial curve, poor fit] | 
41 | Cc1cc(NC(=O)CSc2nc(C(C)C)nc3sc4c(c23)CCC(C)C4)no1 (centres undefined) | inconclusive: 11.6 µM [cytotoxic, partial curve] | 
42 | CC(C)(C)c1ccc(C(=O)Cn2cnnc2C#N)cc1 |  | inactive: 14.1%
43 | Cn1cnnc1SCC(=O)NC1CCCN(Cc2ccccc2F)C1 (centres undefined) | inconclusive: 29.1 µM [rising, single point] | 
44 | COc1ccc(S(=O)(=O)N2CCOC2CNC(=O)C(=O)NCc2ccc3c(c2)OCO3)cc1OC (centres undefined) | inconclusive: 29.1 µM [cytotoxic, single point] | 

Single entries from above.
Potency with CCOC(=O)c1c(-c2ccc(OC)c(OC)c2)csc1NC(=O)C1CCCO1 (centres undefined) reads inconclusive: 8.2 µM [cytotoxic, partial curve]
Potency with O=C(c1cnc2n(c1=O)CCS2)N1CCN(c2ccc(Cl)c(Cl)c2)CC1 reads inconclusive: 29.1 µM [cytotoxic, single point]
Potency with O=C(O)c1ccc(N2CCc3ccccc32)c([N+](=O)[O-])c1 reads inconclusive: 25.9 µM [rising, single point]
